Patent US20070141625A1 (published 2007)
No constants are given. Whether binding was seen depends on the method and setting. Some binding calls cover weakened binding; strength is not graded here.

Chains of the proteins cited; added tags and fusions are not shown. Residues count along the entry.
UniProt P04070, residues 43-461: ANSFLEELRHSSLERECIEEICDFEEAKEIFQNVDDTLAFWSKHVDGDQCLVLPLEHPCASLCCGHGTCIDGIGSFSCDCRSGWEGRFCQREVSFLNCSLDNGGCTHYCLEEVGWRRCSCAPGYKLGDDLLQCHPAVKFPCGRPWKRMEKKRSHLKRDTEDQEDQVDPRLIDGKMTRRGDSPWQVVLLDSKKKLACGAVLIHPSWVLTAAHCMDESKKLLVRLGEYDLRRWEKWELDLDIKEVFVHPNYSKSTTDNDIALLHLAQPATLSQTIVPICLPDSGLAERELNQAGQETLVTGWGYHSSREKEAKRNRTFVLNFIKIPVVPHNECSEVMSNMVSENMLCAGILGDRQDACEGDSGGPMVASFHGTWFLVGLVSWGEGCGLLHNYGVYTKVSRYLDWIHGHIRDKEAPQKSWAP

Tests used:
protein C (PC) [1] = biological target: protein C (PC) (UniProt P04070); assay: affinity column with immobilized rhsEPCR; PC eluted with EDTA (data not shown)
protein C (PC) [2] = biological target: protein C (PC) (UniProt P04070); assay: inhibition of PC activation on endothelial cells by soluble rhsEPCR

- binding (protein C (PC) [1]): binds
- binding (protein C (PC) [2]): binds
B1: recombinant human soluble EPCR (rhsEPCR) (receptor)
chain: SISQDASDGLQRLHMLQISYFRDPYHVWYQGNASLGGHLTHVLEGPDTNTTIIQLQPLQEPESWARTQSGLQSYLLQFHGLVRLVHQERTLAFPLTIRCFLGCELPPEGSRAHVFFEVAVNGSSFVSFRPERALWQADTQVTSGVVTFTLQQLNAYNRTRYELREFLEDTCVQYVQKHISAENTKGSQTSRSYTSAAASFLEQKLISEEDLNSAVDHHHHHH
notes: also called recombinant sEPCR; human recombinant EPCR in soluble form
